# These are yes or no findings as the source states them, for the method shown. Binding seen in cells or lysates may run through a third protein. Some binding calls cover weakened binding; strength is not graded here.
# Amino acid sequences for entries named in this document (tags omitted). A change or cut given only in a name is not applied to a line headed by its entry. Chains listed by the source or under a name are the forms on record and can include a tag or linker.
# UniProt P10275: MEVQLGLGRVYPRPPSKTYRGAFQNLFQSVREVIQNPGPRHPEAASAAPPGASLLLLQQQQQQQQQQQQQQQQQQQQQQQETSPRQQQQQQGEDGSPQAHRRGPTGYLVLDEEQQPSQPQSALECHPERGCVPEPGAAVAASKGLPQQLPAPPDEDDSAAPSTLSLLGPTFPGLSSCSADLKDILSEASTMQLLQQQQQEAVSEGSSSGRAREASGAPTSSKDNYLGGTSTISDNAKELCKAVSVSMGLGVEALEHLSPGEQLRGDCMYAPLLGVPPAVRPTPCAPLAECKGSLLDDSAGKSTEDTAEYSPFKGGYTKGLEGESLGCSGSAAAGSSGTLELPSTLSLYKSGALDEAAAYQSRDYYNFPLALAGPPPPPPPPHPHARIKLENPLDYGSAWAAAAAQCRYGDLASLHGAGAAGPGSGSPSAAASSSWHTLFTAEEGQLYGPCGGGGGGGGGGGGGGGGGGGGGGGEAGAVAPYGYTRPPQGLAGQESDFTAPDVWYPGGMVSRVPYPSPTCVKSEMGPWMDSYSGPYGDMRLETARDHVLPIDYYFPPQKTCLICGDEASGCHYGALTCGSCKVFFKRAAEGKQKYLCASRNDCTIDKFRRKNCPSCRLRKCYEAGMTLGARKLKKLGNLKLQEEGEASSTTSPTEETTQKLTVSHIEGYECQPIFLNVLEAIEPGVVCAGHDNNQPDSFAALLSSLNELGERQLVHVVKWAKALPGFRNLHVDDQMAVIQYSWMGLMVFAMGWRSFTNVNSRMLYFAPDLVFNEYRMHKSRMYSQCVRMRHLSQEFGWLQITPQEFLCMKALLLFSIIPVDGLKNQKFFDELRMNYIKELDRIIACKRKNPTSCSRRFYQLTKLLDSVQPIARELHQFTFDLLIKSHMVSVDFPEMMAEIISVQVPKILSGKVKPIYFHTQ
# AR V7 (P10275, form named): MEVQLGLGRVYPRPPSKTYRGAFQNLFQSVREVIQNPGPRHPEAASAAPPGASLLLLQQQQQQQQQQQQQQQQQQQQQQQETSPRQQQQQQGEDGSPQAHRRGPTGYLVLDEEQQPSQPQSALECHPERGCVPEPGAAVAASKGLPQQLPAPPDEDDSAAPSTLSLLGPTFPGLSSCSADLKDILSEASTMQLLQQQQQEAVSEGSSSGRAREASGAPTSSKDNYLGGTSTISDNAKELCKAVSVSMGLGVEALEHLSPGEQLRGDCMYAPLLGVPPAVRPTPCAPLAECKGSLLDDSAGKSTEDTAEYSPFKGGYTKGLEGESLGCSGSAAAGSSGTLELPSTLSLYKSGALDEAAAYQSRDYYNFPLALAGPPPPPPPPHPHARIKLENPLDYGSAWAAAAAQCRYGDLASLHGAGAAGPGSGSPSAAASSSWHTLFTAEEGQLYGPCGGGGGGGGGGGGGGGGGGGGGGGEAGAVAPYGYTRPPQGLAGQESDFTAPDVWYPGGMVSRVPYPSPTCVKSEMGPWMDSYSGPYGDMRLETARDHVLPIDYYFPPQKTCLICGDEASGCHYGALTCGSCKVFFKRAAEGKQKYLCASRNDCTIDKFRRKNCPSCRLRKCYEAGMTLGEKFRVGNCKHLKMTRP
# UniProt P62068: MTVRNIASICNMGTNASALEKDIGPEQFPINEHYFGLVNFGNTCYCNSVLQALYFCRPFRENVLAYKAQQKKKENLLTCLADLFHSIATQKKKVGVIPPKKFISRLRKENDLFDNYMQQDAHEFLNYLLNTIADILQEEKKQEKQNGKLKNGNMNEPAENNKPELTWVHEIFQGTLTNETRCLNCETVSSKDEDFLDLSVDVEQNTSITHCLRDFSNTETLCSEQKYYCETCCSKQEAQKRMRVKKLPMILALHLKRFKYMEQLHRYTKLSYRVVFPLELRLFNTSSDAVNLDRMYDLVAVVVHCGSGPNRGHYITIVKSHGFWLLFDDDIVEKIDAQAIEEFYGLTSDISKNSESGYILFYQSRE
# UniProt O75317: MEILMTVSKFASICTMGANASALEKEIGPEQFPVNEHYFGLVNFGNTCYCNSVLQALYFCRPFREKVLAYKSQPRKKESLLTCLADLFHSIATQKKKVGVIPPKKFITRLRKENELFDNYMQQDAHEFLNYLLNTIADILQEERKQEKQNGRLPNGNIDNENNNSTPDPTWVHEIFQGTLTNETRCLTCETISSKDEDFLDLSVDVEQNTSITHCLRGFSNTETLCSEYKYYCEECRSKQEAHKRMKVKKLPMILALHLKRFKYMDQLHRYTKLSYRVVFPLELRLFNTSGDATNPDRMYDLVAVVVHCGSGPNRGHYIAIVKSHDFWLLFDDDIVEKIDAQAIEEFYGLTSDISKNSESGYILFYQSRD
# Legend:
# [1] = molecular target: full-length androgen receptor (AR FL) (UniProt P10275); test: co-IP; plasmids overexpressed in COS-7 cells for 72 h; AR constructs immunoprecipitated from lysate (50 mM Tris pH 7.5, 150 mM NaCl, 1% Nonidet P-40) with 1 ug antibody for 16 h at 4 C, protein G-Sepharose; Western blotting
# [2] = molecular target: AR V7 (UniProt P10275); test: as above
Substance,binding [1],binding [2]
USP46 (from UniProt P62068 1-366) (enzyme),binds,–
USP12 (from UniProt O75317 1-370) (enzyme),binds,no binding

# — article PMC5982776, “The novel anti-androgen candidate galeterone targets deubiquitinating enzymes, USP12 and USP46, to control prostate cancer growth and survival” (Oncotarget, 2018)
